The supplement of paper PMC10849652
The list shows a part of the results.

Protein sequences, listed by entry. Tags and fused reporters are not part of them. Lines headed by an entry give the natural chain unless they say otherwise; changes in a name come on top.
UniProt Q9Y3C6: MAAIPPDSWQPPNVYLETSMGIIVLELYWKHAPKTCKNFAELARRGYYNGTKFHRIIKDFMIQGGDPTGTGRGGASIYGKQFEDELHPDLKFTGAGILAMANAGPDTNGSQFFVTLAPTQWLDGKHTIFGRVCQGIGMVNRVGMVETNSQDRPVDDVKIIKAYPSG
UniProt Q14181: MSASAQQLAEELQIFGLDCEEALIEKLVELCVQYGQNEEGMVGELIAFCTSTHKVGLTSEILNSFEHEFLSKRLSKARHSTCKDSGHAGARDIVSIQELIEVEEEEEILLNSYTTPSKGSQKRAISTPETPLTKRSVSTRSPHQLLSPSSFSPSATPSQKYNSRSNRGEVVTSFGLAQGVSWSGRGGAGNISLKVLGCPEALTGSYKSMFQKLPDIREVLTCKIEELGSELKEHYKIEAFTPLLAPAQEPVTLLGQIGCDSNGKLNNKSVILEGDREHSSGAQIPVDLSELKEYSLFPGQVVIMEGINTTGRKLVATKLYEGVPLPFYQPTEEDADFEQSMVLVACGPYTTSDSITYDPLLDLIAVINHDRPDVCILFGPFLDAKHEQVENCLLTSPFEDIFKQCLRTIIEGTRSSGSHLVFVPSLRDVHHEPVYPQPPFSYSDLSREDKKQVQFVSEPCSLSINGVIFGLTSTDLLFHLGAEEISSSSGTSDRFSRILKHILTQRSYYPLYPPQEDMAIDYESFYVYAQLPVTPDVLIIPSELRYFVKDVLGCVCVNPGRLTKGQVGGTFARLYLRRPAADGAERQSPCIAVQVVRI
UniProt Q8WUA2: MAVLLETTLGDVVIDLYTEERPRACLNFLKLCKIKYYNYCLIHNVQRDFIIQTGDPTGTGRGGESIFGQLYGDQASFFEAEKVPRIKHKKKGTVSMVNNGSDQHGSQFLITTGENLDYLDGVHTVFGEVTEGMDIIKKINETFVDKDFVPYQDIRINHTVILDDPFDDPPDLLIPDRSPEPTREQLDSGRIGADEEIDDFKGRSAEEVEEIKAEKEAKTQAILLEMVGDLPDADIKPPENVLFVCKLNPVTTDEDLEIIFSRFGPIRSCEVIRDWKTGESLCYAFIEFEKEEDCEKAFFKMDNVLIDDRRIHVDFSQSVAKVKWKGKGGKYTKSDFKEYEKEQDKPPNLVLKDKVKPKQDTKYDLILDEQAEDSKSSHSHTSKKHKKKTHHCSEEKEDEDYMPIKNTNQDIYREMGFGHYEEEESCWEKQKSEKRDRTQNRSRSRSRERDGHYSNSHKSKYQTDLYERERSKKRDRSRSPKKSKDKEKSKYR
UniProt O15031: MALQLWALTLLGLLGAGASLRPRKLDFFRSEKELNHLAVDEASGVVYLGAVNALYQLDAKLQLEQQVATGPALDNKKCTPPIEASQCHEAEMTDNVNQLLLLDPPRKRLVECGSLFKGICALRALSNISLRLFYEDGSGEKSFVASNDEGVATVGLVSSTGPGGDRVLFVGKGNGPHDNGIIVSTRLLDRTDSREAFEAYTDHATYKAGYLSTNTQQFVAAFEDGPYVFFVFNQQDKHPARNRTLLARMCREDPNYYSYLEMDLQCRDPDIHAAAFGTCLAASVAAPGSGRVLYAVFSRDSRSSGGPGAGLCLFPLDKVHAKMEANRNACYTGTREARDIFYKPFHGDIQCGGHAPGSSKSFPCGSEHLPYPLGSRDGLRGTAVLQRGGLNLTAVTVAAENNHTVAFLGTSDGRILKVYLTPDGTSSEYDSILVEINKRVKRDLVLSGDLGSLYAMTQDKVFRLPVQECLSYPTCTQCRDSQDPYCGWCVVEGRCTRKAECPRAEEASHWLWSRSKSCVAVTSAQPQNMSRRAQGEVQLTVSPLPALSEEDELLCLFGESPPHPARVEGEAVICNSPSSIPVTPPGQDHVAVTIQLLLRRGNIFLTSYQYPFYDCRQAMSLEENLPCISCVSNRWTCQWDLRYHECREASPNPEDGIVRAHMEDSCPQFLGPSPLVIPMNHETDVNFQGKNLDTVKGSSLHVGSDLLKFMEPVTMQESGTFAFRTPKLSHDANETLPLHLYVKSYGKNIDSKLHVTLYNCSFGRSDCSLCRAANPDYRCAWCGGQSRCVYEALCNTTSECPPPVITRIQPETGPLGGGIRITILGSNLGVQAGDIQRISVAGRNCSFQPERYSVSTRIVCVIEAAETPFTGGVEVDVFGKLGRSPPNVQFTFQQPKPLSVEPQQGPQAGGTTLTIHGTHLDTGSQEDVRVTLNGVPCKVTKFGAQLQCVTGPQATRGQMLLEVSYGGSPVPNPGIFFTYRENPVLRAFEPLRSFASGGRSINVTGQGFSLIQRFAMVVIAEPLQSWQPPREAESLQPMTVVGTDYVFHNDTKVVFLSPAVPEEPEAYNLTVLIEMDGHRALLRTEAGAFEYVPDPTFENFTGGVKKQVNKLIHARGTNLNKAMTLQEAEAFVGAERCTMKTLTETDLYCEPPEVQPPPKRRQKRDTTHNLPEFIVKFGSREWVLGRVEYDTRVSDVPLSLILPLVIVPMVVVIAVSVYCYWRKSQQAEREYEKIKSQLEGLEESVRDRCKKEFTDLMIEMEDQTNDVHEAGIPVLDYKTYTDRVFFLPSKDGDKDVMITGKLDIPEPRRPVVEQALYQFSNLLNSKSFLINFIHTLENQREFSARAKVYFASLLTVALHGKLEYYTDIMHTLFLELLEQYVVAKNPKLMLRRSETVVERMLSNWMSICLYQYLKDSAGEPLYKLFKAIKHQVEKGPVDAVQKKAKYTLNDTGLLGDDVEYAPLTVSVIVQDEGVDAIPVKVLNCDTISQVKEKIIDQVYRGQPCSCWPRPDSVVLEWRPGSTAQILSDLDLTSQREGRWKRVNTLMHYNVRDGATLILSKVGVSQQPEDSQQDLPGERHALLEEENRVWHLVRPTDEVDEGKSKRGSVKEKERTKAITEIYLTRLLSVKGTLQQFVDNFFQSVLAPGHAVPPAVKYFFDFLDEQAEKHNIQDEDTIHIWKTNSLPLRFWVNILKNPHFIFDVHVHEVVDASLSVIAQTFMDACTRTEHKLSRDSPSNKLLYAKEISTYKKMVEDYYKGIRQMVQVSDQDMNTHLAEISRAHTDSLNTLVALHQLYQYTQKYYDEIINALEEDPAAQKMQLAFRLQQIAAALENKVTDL
UniProt P53350, whole entry, looked up: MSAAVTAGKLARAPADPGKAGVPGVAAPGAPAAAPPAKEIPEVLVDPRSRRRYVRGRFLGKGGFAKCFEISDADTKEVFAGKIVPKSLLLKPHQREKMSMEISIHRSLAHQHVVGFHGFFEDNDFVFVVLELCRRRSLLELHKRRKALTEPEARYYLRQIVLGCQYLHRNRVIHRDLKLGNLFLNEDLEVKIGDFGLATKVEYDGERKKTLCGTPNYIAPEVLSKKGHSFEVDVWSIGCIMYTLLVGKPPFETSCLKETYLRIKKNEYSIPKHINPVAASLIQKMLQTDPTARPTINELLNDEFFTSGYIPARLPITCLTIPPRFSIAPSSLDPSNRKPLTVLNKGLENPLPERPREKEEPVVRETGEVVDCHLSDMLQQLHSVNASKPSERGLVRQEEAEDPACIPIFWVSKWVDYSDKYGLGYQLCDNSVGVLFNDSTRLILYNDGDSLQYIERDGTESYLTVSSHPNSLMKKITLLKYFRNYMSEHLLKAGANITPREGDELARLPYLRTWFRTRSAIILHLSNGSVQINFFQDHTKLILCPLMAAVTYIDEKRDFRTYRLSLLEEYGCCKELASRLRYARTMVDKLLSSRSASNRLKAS
UniProt P14859: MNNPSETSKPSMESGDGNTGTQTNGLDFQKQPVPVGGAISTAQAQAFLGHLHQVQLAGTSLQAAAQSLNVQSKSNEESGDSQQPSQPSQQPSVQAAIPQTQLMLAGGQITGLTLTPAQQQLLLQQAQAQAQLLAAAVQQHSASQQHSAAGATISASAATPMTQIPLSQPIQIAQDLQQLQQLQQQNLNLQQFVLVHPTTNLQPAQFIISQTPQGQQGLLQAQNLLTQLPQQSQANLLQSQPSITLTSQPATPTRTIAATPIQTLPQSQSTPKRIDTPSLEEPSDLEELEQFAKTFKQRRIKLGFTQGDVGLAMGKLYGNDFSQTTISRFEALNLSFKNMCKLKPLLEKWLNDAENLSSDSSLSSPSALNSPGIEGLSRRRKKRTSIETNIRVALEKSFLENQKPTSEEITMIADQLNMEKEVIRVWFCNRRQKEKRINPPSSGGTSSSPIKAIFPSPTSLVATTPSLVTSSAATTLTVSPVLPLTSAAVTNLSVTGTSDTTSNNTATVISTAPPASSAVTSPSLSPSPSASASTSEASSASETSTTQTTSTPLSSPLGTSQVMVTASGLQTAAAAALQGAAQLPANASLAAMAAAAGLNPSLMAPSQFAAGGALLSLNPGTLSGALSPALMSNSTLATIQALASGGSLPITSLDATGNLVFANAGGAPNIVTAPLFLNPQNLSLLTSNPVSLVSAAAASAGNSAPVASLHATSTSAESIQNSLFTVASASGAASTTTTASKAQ
UniProt Q99541: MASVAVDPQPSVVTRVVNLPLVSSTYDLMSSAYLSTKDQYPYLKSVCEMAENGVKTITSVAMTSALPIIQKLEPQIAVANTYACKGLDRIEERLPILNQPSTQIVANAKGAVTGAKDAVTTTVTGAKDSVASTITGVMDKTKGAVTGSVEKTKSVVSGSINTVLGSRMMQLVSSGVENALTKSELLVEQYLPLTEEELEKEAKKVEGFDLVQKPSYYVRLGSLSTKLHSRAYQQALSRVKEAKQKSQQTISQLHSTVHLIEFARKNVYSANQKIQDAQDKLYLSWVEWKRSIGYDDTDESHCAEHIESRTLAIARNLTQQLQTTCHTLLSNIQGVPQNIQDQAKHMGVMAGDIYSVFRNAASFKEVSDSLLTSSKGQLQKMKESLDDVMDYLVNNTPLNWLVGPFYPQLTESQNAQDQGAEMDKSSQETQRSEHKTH
UniProt Q9H1D9: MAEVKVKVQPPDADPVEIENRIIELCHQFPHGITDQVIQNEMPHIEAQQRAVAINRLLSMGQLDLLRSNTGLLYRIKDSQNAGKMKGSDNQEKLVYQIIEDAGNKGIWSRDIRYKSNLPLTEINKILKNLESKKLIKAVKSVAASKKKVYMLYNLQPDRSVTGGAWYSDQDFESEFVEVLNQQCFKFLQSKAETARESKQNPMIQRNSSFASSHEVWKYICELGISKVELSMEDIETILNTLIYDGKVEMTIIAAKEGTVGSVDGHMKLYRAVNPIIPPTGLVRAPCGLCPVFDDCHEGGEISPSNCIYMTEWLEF
UniProt O15318: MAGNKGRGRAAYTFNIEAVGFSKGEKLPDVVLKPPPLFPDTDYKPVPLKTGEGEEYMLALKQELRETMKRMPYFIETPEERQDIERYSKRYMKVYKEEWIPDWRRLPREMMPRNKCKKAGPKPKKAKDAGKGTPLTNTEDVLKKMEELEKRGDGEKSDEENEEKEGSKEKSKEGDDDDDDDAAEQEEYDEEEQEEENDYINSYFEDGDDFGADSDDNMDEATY
UniProt P28340: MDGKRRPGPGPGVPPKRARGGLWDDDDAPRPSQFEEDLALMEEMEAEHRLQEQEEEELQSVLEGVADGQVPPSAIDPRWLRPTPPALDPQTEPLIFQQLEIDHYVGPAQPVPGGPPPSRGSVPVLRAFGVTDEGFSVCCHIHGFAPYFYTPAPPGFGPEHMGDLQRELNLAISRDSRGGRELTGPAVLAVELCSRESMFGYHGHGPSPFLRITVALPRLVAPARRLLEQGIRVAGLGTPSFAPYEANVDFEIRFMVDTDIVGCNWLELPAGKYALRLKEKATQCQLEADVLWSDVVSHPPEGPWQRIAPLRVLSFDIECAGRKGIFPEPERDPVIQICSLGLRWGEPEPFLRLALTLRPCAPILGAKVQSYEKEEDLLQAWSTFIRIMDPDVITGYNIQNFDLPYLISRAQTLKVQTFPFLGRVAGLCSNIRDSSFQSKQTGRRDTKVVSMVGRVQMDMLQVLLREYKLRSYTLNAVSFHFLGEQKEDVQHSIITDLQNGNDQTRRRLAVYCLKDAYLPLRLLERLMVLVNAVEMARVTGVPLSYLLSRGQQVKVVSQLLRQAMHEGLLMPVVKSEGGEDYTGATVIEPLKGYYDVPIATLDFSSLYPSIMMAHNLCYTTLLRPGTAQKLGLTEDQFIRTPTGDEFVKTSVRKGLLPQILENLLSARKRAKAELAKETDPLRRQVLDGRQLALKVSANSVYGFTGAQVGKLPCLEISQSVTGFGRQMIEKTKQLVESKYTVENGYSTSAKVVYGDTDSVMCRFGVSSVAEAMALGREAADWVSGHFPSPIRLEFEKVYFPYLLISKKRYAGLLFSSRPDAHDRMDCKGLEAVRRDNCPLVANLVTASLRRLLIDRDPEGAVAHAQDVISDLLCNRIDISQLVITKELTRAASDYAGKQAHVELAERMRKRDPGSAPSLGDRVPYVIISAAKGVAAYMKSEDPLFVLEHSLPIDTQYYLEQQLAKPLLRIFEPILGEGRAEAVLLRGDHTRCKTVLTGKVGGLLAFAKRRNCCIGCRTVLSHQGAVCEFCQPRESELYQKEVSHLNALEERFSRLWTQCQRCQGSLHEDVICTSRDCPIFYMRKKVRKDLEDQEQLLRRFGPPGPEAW

Columns and labels:
Assay in all cases: log2 fold change, soluble protein after heating vs DMSO (PISA); higher = thermal stabilisation; K562 cells, 10 uM, 30 min; active = over 0.2 and 3.5 SD of the protein, either way, in both replicates (recomputed)
[1] = compound: COC1=CC=C(C=C1)CN2C=CC3=C2C=C(C=C3)C(=O)NO
In short: (§1)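 Quantification of soluble protein used TMTpro 16plex LC-MS/MS, with channel sums equalised. Samples were the supernatant after 21,000xg for 90 min of pooled aliquots from K562 cells (2×10^6 cells/mL) treated with 10 μM compound for 30 min, heated for 3 min over 48°C-58°C, and extracted in PBS with 0.5% NP-40 at 4°C. Values, from duplicates, describe thermal stability against control samples on a log2 fold-change scale.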

filanesib = compound: CON(C)C(=O)N1N=C(c2cc(F)ccc2F)S[C@@]1(CCCN)c1ccccc1 [filanesib]
In short: as §1

zotarolimus = compound: CO[C@H]1C[C@@H]2CC[C@@H](C)[C@@](O)(O2)C(=O)C(=O)N2CCCC[C@H]2C(=O)O[C@H]([C@H](C)C[C@@H]2CC[C@H](n3cnnn3)[C@H](OC)C2)CC(=O)[C@H](C)/C=C(\C)[C@@H](O)[C@@H](OC)C(=O)[C@H](C)C[C@H](C)/C=C/C=C/C=C/1C [zotarolimus]
In short: as §1

idasanutlin = compound: COc1cc(C(=O)O)ccc1NC(=O)[C@@H]1N[C@@H](CC(C)(C)C)[C@](C#N)(c2ccc(Cl)cc2F)[C@H]1c1cccc(Cl)c1F [idasanutlin]
In short: as §1

alisertib = compound: COc1cc(Nc2ncc3c(n2)-c2ccc(Cl)cc2C(c2c(F)cccc2OC)=NC3)ccc1C(=O)O [alisertib]
In short: as §1

[2] = compound: COc1cc2nc(-c3cc(F)ccc3O)nc(N[C@@H]3CNC[C@H]3C(C)(C)O)c2cc1OC
In short: as §1

gefitinib = compound: COc1cc2ncnc(Nc3ccc(F)c(Cl)c3)c2cc1OCCCN1CCOCC1 [gefitinib]
In short: as §1

[3] = compound: COc1cccc2cc(-c3nc([C@H]4CC[C@H](C(=O)O)CC4)n4ncnc(N)c34)[nH]c12
In short: as §1

lapatinib = compound: CS(=O)(=O)CCNCc1ccc(-c2ccc3ncnc(Nc4ccc(OCc5cccc(F)c5)c(Cl)c4)c3c2)o1 [lapatinib]
In short: as §1

pictilisib = compound: CS(=O)(=O)N1CCN(Cc2cc3nc(-c4cccc5[nH]ncc45)nc(N4CCOCC4)c3s2)CC1 [pictilisib]
In short: as §1

Measured: log2 fold change

PPIH (UniProt O43447)
inactive: [1] 0.123 | filanesib -0.028 | zotarolimus -0.011 | idasanutlin -0.08 | alisertib -0.057 | [2] 0.042 | gefitinib 0.018 | [3] -0.019 | lapatinib -0.015 | pictilisib 0.058

PPIL1 (UniProt Q9Y3C6)
inactive: [1] -0.079 | filanesib 0.05 | zotarolimus -0.008 | idasanutlin -0.015 | alisertib -0.078 | [2] 0.12 | gefitinib -0.023 | [3] -0.017 | lapatinib -0.051 | pictilisib -0.028

POLA2 (UniProt Q14181)
inactive: [1] 0.086 | filanesib -0.001 | zotarolimus 0.015 | idasanutlin -0.02 | alisertib 0.005 | [2] 0.046 | gefitinib 0 | [3] -0.015 | lapatinib 0.018 | pictilisib 0.051

PPIL4 (UniProt Q8WUA2)
inactive: [1] -0.001 | filanesib 0.116 | zotarolimus 0.032 | idasanutlin 0.101 | alisertib -0.003 | [2] 0.015 | gefitinib 0.002 | [3] -0.005 | lapatinib 0.02 | pictilisib 0.018

POLG2 (UniProt Q9UHN1)
inactive: [1] 0.089 | filanesib 0.012 | zotarolimus 0.008 | idasanutlin 0.024 | alisertib -0.053 | [2] -0.005 | gefitinib -0.014 | [3] 0.011 | lapatinib -0.042 | pictilisib 0.012

PLXNB2 (UniProt O15031)
inactive: [1] 0.003 | filanesib 0.034 | zotarolimus -0.042 | idasanutlin -0.034 | alisertib -0.022 | [2] 0.073 | gefitinib 0.014 | [3] 0.053 | lapatinib 0.017 | pictilisib 0.006

Taken from the results shown (two entries):
POLG2 (UniProt Q9UHN1)
inactive: [1] 0.089 | filanesib 0.012 | zotarolimus 0.008 | idasanutlin 0.024 | alisertib -0.053 | [2] -0.005 | gefitinib -0.014 | [3] 0.011 | lapatinib -0.042 | pictilisib 0.012

PLXNB2 (UniProt O15031)
inactive: [1] 0.003 | filanesib 0.034 | zotarolimus -0.042 | idasanutlin -0.034 | alisertib -0.022 | [2] 0.073 | gefitinib 0.014 | [3] 0.053 | lapatinib 0.017 | pictilisib 0.006

Next part.

PLK1 (UniProt P53350)
inactive: [1] 0.013 | filanesib 0.068 | zotarolimus -0.021 | idasanutlin 0.014 | alisertib 0.02 | [2] 0.092 | gefitinib -0.024 | [3] -0.133 | lapatinib 0.041 | pictilisib -0.072

POU2F1 isoform 6 (UniProt P14859)
inactive: [1] -0.038 | filanesib -0.139 | zotarolimus 0 | idasanutlin -0.051 | alisertib 0.053 | [2] -0.023 | gefitinib 0.012 | [3] 0.124 | lapatinib 0.19 | pictilisib -0.025

PPAT (UniProt Q06203)
inactive: [1] 0.003 | filanesib -0.018 | zotarolimus 0.038 | idasanutlin -0.012 | alisertib -0.082 | [2] 0.02 | gefitinib -0.013 | [3] 0.055 | lapatinib -0.04 | pictilisib 0.028

PLIN2 (UniProt Q99541)
inactive: [1] -0.014 | zotarolimus -0.041 | idasanutlin -0.107 | alisertib 0.058 | gefitinib 0.003 | [3] 0.028 | lapatinib -0.093 | pictilisib 0.023
active: filanesib -0.44 | [2] -0.891

POLR3F (UniProt Q9H1D9)
inactive: [1] -0.032 | filanesib 0.012 | zotarolimus 0.043 | idasanutlin 0.019 | alisertib -0.091 | [2] 0.036 | gefitinib 0.026 | [3] -0.015 | lapatinib 0.134 | pictilisib -0.056

POLR3G (UniProt O15318)
inactive: [1] -0.074 | filanesib 0.01 | zotarolimus -0.033 | idasanutlin 0.11 | alisertib -0.06 | [2] -0.1 | gefitinib -0.04 | [3] 0.027 | lapatinib 0.065 | pictilisib -0.014

POLD1 (UniProt P28340)
inactive: [1] 0.025 | filanesib -0.038 | zotarolimus 0.007 | idasanutlin 0.024 | alisertib -0.042 | [2] -0.006 | gefitinib 0.007 | [3] 0.047 | lapatinib 0.01 | pictilisib 0
